Results published in US20210079096A1.
Where a chain is given by its changes, count along the chain named. Results are given in words; binding and its absence hold for the method and conditions named. Some binding calls cover weakened binding; strength is not graded here.

T1: B7-H4 in FFPE sections of an invasive ductal carcinoma breast tumor (UniProt Q7Z7D3)
T1 sequence (looked up): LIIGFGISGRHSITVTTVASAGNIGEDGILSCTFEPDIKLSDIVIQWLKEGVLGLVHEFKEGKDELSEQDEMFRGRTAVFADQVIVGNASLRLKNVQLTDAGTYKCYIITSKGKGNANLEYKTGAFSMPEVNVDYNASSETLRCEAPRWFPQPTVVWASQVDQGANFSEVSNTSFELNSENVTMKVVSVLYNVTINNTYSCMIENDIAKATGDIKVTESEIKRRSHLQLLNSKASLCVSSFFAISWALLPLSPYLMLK

B1: M6 (antibody, V domains shown)
VH: QVTLKESGPGILQPSQTLSLTCSFSGFSLSTYGLGVGWIRQPSGKGLDWLANIWWNDDKYYNSALKSRLTISKDTSNNQVFLKISSVDTADTGTYYCAQVDGYYWYFDVWGAGTTVTVSS
VL: DVLMTQTPLSLPVSLGDQASISCRSSQSIVHSNRNTYLEWYLQKPGQSPKLLIYNVSNRFSGVPDRFSGSGSGTDFTLKISRVEAEDLGVYYCFQGSHVPLTFGAGTKLELK
B2: M11 (antibody, V domains shown)
VH: B1 VH with F24L, D48G
VL: B1 VL
B3: M15 (antibody, V domains shown)
VH: B1 VH with P14S
VL: B1 VL

molecular target: T1, B7-H4 in FFPE sections of an invasive ductal carcinoma breast tumor; assay: IHC

binding, binds:
B1
B2
B3
